Data on one substance can be found in patent US3971737A (American Home Products Corporation, priority 1975, dated 1976).

This data set is described as follows: general procedure: Boc solid-phase peptide synthesis; benzhydrylamine resin; DIC. The conditions noted are these: whole synthesis, scale 1.0 m moles.

HELM strings list residues between dots; [ac] is acetyl, [am] amide, other brackets name non-standard units.

The substance “PEPTIDE1{[pGlu].H.W.S.Y.[Aib].L.R.P.G.[am]}$$$$V2.0” yielded a crude mass of 0.95 g.
